Screening data, single-dose tests

Chains of the proteins cited; added tags and fusions are not shown.
UniProt I6X8D2, whole entry: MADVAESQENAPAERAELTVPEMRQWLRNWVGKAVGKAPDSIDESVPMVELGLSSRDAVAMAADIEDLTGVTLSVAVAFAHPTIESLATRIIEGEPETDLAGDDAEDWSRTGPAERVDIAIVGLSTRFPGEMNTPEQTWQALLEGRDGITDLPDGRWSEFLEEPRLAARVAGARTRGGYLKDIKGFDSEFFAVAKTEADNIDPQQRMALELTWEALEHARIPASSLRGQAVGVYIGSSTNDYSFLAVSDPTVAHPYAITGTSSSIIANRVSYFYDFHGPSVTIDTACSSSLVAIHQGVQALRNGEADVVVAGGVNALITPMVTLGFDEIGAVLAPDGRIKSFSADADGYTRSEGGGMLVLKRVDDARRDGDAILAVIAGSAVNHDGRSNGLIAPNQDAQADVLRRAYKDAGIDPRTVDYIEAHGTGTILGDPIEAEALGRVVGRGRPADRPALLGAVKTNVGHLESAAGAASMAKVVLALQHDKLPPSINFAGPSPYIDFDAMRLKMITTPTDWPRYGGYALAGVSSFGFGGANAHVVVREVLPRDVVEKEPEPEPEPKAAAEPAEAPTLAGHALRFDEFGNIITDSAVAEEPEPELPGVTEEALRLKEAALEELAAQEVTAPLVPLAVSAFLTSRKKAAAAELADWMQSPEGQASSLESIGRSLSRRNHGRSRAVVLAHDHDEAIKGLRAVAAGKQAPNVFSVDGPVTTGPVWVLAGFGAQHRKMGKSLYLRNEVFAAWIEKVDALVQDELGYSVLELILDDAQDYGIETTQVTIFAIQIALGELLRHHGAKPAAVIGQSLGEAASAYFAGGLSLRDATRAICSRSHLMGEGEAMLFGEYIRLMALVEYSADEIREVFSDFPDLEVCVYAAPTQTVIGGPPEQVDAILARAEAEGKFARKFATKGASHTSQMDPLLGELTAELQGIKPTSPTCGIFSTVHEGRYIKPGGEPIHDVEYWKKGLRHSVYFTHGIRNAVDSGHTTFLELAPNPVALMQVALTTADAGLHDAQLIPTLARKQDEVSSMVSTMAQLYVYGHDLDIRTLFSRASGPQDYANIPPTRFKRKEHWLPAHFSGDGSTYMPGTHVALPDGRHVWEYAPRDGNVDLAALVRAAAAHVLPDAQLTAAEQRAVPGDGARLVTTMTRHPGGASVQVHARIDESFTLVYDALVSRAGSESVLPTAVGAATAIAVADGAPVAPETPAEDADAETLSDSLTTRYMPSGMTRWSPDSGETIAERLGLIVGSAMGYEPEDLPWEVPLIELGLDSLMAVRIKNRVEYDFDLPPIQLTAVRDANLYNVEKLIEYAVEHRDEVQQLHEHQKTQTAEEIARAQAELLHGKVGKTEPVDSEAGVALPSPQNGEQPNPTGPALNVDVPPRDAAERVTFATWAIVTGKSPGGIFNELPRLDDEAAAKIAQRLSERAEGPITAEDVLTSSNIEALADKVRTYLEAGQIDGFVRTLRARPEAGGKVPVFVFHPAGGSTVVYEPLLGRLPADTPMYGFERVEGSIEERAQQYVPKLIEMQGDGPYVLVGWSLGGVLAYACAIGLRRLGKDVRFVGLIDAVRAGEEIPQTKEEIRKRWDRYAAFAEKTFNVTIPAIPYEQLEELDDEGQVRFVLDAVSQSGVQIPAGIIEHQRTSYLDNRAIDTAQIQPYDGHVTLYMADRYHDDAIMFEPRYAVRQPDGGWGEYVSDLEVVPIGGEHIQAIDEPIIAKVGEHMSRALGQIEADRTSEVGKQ

Data taken from ChEMBL document CHEMBL3988442, “University of Dundee, Small-Polar-MMV Screening Library” (2021).

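Polyketide synthase Pks13, Mycobacterium tuberculosis (UniProt I6X8D2). Enzyme assay of the thioesterase domain of polyketide synthase 13; the read-out is not stated. Compounds at 30 µM. The record gives no direction; the compounds picked for IC50 retests had high values, so higher reads as stronger inhibition. About 67,000 compounds were tested under these conditions; 0.46% (about 300) showed 50% or more at least once.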

The filed quantity is “Percent Effect” (%).
How 0% and 100% were set is not recorded. Most values in the screen are low, and negative values occur.
This is an unselected part of the compounds tested.

Result for CC(C)c1noc(C2CCCN2C(=O)CN2CCc3ccccc32)n1 (configuration not stated) was -9.184%.
Result for Cc1ccc2c(c1)OC(C)CN2C(=O)CCc1cscn1 (configuration not stated) was -17.57%.
Result for Cc1cc(CN2CCN(C(=O)NCCCc3cn[nH]c3C)CC2)on1 was -20.62%.
Result for CCc1nc(CN2CCOC(Cn3cncn3)C2)no1 (configuration not stated) was -25.45%.
Result for Cc1csc(N(C)C(=O)C2CC(=O)N(c3ccccc3F)C2)n1 (configuration not stated) was -4.908%.
Result for CC(C)=CCCC1(C)CCC(=O)N(CCNc2nc(C)cc(=O)[nH]2)C1 (configuration not stated) was 15.84%.
Result for CCc1nnc(SCc2nonc2C)n1C was -0.4975%.
Result for CCC(=O)N1CCCCC[C@@H]2[C@@H]1[C@H](c1cccc(F)c1)CN2C was -27%.
Result for CC(C)CCC(=O)N1CCN(C(=O)c2ccc3nccn3c2)CC1 was -6.983%.
Result for CC(C)c1noc(CCCC(=O)N2CCN(Cc3ccncc3)CC2)n1 was -27.21%.
Result for CNC(=O)c1c(C)cccc1NCc1nnc(C2CC2)o1 was -28.1%.
Result for CNC(=O)c1ccc(C(=O)N2CCCC(n3nc(C)cc3C)C2)cn1 (configuration not stated) was -11.41%.
Result for Cc1cc(CN2CCN(C(=O)c3sccc3C(C)C)CC2)no1 was -12.4%.
Result for O=C(Cc1ccc(F)cc1)N1CCN(CC(O)c2ccccc2)CC1 (configuration not stated) was -12.86%.
Result for Cc1ccc(CNc2cc(N3CCCC3CO)ncn2)s1 (configuration not stated) was -15.28%.
Result for CC(C)n1cc(CN2CCCN(C(=O)c3ccnn3C)CC2)cn1 was -1.234%.
Result for O=c1n(Cc2cccc(F)c2)nc2ncccn12 was -9.135%.
Result for C[C@H]1CN(C)C[C@@]12COCCN(C(=O)Cc1ccccc1)C2 was -28.65%.
Result for c1cncc(COCc2cncc3c2CCN(Cc2ccoc2)C3)c1 was -9.474%.
Result for CCN1CC[C@@]2(C(=O)N3CCOCC3)CCN(C(=O)NC)CC[C@@H]12 was -31.76%.
Result for Cc1nc(C)n(CC2CCCCN2Cc2cnc(C)s2)n1 (configuration not stated) was -9.905%.
Result for Cc1nc(C2CCCN2C(=O)c2ccc(F)cc2)ncc1C(N)=O (configuration not stated) was -6.667%.
Result for CN(C)Cc1csc(-c2nccn2Cc2ccsc2)c1 was 1.305%.
Result for O=C(c1ccccc1)N1C[C@@H]2CCCO[C@@H]2[C@H](N2CCOCC2)C1 was -63.49%.
Result for CC(C#N)CN(C)Cc1c(Cl)ccc2cccnc12 (configuration not stated) was 7.082%.
Result for CCN(CC)C(=O)CSc1nc2c(cnn2CCO)c(=O)[nH]1 was -12.57%.
Result for COCCN(Cc1ccccc1)Cc1csc(-c2ncccn2)n1 was -34.17%.
Result for CCNC(=O)N(C)C(c1cccc(F)c1)c1ccccn1 (configuration not stated) was 5.073%.
Result for CCC(CNC(C)=O)(OC)c1ccccc1 (configuration not stated) was -33.25%.
Result for CCCS(=O)(=O)N1C[C@@H]2CN(Cc3cnn(C)c3)CCO[C@@H]2C1 was -12.43%.
Result for COc1ccc2c(c1)CC(NCCCn1cc(C)cn1)CC2 (configuration not stated) was -15.01%.
Result for CCOc1ccc(NC(=O)C2OC(c3cccs3)=NN2C(C)=O)cc1 (configuration not stated) was 3.201%.
Result for CC(C)N(C)Cc1nnc2n1CCN(S(=O)(=O)C1CC1)CC2 was -12.15%.
Result for CCOC(=O)NC(CNC(=O)c1ccccn1)CC(C)C (configuration not stated) was 3.813%.
Result for CC(C)CC(=O)N1CCCn2cnc(CN3CCCC3=O)c2C1 was -6.504%.
Result for N#Cc1cc(F)ccc1CN1CCCCC1Cn1cncn1 (configuration not stated) was -5.614%.
Result for Cc1cccc2nc(C(=O)N3CCC(Nc4cccnn4)CC3)cn12 was -14.31%.
Result for CCc1nc(CN2CCCC(Nc3ncnc4ccsc34)C2)no1 (configuration not stated) was -4.794%.
Result for CC(C)Oc1ncccc1CNC(=O)Nc1ccccn1 was -14.5%.
Result for CCc1cccc(OC2CN(C(=O)[C@@H](N)[C@@H](C)O)C2)c1 was -34.53%.
Result for N#CC1(C(=O)N2C[C@H](Nc3ccnc(N)n3)[C@@H](C3CC3)C2)CCOCC1 was -4.886%.
Result for Cc1occc1C(=O)N1CCO[C@H]2[C@H](OCc3ccccn3)CC[C@@H]21 was -9.191%.

For reference, 4 entries once more:

| SMILES | Percent Effect |
|---|---|
| `Cc1cc(CN2CCN(C(=O)NCCCc3cn[nH]c3C)CC2)on1` | -20.62 |
| `CCc1nc(CN2CCOC(Cn3cncn3)C2)no1` (configuration not stated) | -25.45 |
| `CCCS(=O)(=O)N1C[C@@H]2CN(Cc3cnn(C)c3)CCO[C@@H]2C1` | -12.43 |
| `CC(C)n1cc(CN2CCCN(C(=O)c3ccnn3C)CC2)cn1` | -1.234 |